{
  "source": "patent US20140000882A1",
  "about": "“PETROLEUM RECOVERY PROCESS AND SYSTEM” (Shell Oil Company, priority 2012, published 2014)",
  "assay": "Oil recovery from formation core by brine displacement followed by DMS displacement",
  "details": "after brine displacement",
  "description": "Incremental recovery of oil from a formation core using an oil recovery formulation consisting of dimethyl sulfide following oil recovery from the core by water-flooding was measured to evaluate the effectiveness of DMS as a tertiary oil recovery agent.\nTwo 5.02 cm long Berea sandstone cores with a core diameter of 3.78 cm and a permeability between 925 and 1325 mD were saturated with a brine having a composition as set forth in Table 7.\nAfter saturation of the cores with brine, the brine was displaced by a Middle Eastern Asphaltic crude oil having the characteristics as set forth above in Table 3 to saturate the cores with oil.\nOil was recovered from each oil saturated core by the addition of brine to the core under pressure and by subsequent addition of DMS to the core under pressure. Each core was treated as follows to determine the amount of oil recovered from the core by addition of brine followed by addition of DMS. Oil was initially displaced from the core by addition of brine to the core under pressure. A confining pressure of 1 MPa was applied to the core during addition of the brine, and the flow rate of brine to the core was set at 0.05 ml/min. The core was maintained at a temperature of 50° C. during displacement of oil from the core with brine. Oil was produced and collected from the core during the displacement of oil from the core with brine until no further oil production was observed (24 hours). After no further oil was displaced from the core by the brine, oil was displaced from the core by addition of DMS to the core under pressure. DMS was added to the core at a flow rate of 0.05 ml/min for a period of 32 hours for the first core and for a period of 15 hours for the second core. Oil displaced from the core during the addition of DMS to the core was collected separately from the oil displaced by the addition of brine to the core.\nThe oil samples collected from each core by brine displacement and by DMS displacement were isolated from water by extraction with dichloromethane, and the separated organic layer was dried over sodium sulfate. After evaporation of volatiles from the separated, dried organic layer of each oil sample, the amount of oil displaced by brine addition to a core and the amount of oil displaced by DMS addition to the core were weighed. Volatiles were also evaporated from a sample of the Middle Eastern asphaltic oil to be able to correct for loss of light-end compounds during evaporation.",
  "key": {"[1]": {"details": "Core 1, 0.05 ml/min for 32 hours"}, "[2]": {"details": "Core 2, 0.05 ml/min for 15 hours"}},
  "data": [
    {"smiles": "CSC", "note": "[Dimethyl Sulfide, dimethyl sulfide]", "values": [
      {"measurement": "Oil produced DMS displacement", "setting": "[1]", "result": 3.5, "unit": "mL"},
      {"measurement": "Oil produced DMS displacement (of % oil initially in core)", "setting": "[1]", "result": 32, "unit": "%"},
      {"measurement": "Oil produced DMS displacement", "setting": "[2]", "result": 3.3, "unit": "mL"},
      {"measurement": "Oil produced DMS displacement (of % oil initially in core)", "setting": "[2]", "result": 30, "unit": "%"}
    ]}
  ]
}
